Reference: patent publication US7415358B2, “Molecular toxicology modeling” (Ocimum Biosolutions, Inc., priority 2001, dated 2008)

System: kidney
Assay: Linear discriminant analysis score of each gene (tox vs non-tox samples)

9-[(2-hydroxyethyl) methyl] guanine [ACYCLOVIR]
LDAScore: 99.61
